# Out of some 330,000 compounds screened, about 7,700 (2.3%) were called active. The shares of active, inactive and inconclusive entries below differ from those in the screen. The call rests on the fitted dose curve; in most records, active means well fitted inhibition curve with a large enough effect; inconclusive means small, poorly fitted or top-dose-only effect, or effect the other way; inactive means flat fitted curve, though single readings scatter. Where the call is inconclusive, the potency comes from a doubtful curve fit.
# Test: qHTS screen for small molecules that inhibit ELG1-dependent DNA repair in human embryonic kidney (HEK293T) cells expressing luciferase-tagged ELG1; further: nearly all actives have a fitted effect of over 55% in size
# Details: HEK293T ELG1-luciferase reporter, luminescence, 16 h, DNA damage induced by 5-fluorouridine; series mostly up to 46.1 µM
# Summary of the method: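 HEK293T cells expressing luciferase-tagged ELG1 (2,000/well) received 5-Fluorouridine plus compound or DMSO for 16 hr at 37 °C. Luciferase was read by ONE-Glo luminescence after 30 min at room temperature.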
# Potency means the concentration at half of the fitted maximal effect.
row,Structure (SMILES),Potency
1,O=c1cc(-c2cccc(F)c2)[nH]c2ccccc12,inactive
2,CCOC(=O)N1CCN(S(=O)(=O)c2ccc(C(=O)Nc3nnc(CC)o3)cc2)CC1,inactive
3,Cc1ccc(-c2c(C(=O)N(C)Cc3ccccc3)oc(=O)c3ccccc23)cc1,"inconclusive: 11.6 µM [inhibitor, partial curve, poor fit]"
4,O=C(O)c1ccc(-c2nc(-c3ccccc3)cs2)cc1,"inconclusive: 3.66 µM [activator, full curve]"
5,COc1cc(NC(=O)c2cccc(Br)c2)nc(OC)n1,"inconclusive: 16.4 µM [activator, partial curve, poor fit]"
6,CC1=C/C(=C(/c2cc(C)c(O)c(Br)c2)c2ccccc2S(=O)(=O)O)C=C(Br)C1=O,"inconclusive: 20.6 µM [inhibitor, partial curve]"
7,COc1ccc(CNC(=O)c2cccnc2)cc1,inactive
8,C=CCNC(=O)c1c(CS(=O)(=O)c2ccccc2)noc1C(=O)NCc1ccccc1,inactive
9,CC(C)OC(=O)Nc1ccc2c(c1)N(C(=O)CCN1CCN(CCO)CC1)c1ccccc1CC2,"inconclusive: 29.1 µM [activator, single point]"
10,Nc1nonc1-c1nc2ccccc2n1Cc1ccc(Cl)cc1,inactive
11,CNC(=O)/C(C#N)=C/c1ccc(-c2ccc(Cl)cc2)o1,"inconclusive: 18.3 µM [activator, partial curve]"
12,CCN(CC)S(=O)(=O)c1cc(NC(=O)C(=O)c2c(-c3ccccc3)cc3ccccn23)ccc1C,active: 16.4 µM
13,Cc1ccc(Nc2nc(/N=C/N(C)C)n[nH]2)cc1C,"inconclusive: 23.1 µM [activator, partial curve]"
14,CC1CCCCC1NC(=O)/C(C#N)=C/c1ccc2c(c1)OCCO2 (centres undefined),inactive
15,CCCC(=O)Nc1ccc(NC(=S)NC(=O)c2ccccc2[N+](=O)[O-])cc1,"inconclusive: 20.6 µM [inhibitor, single point]"
16,CCN1CCN(c2nc3c(c(=O)[nH]c(=O)n3C)n2CCCc2ccccc2)CC1,inactive
17,CCNC(=S)N(CCc1ccccc1C)Cc1cc2cc(OC)c(OC)cc2[nH]c1=O,active: 9.2 µM
18,O=C(Nc1ccc(Cl)cc1Cl)c1ccc2c(c1)OCCO2,"inconclusive: 0.517 µM [activator, full curve]"
19,c1cncc(-c2nnc3sc(C4CCCCC4)nn23)c1,inactive
20,COc1ccc(CNC(=O)CCNS(=O)(=O)c2cc(Br)cnc2N)cc1,"inconclusive: 8.2 µM [inhibitor, partial curve, poor fit]"
21,Cc1cc(/C=C2\C(=N)N3N=C(C(C)C)SC3=NC2=O)c(C)n1-c1ccccc1,inactive
22,COC(=O)Cc1[nH]n(-c2nc3ccccc3s2)c(=O)c1C(C)=Nc1ccc(Cl)cc1,"inconclusive: 9.2 µM [activator, partial curve]"
23,CC(C)CSc1nc2ccccc2c(=O)[nH]1,"inconclusive: 5.8 µM [activator, full curve, poor fit]"
24,CCOc1cc(CNc2ccc(S(N)(=O)=O)cc2)cc(Cl)c1OC,"inconclusive: 29.1 µM [inhibitor, single point]"
25,CC(C)Cn1c(CCC(N)=O)nnc1SC(C)C(=O)Nc1ccc2c(c1)OCO2 (centres undefined),inactive

# Entries listed so far with an aryl thioether with sulfur outside any ring, in the order listed:
row,Structure (SMILES),Potency
23,CC(C)CSc1nc2ccccc2c(=O)[nH]1,"inconclusive: 5.8 µM [activator, full curve, poor fit]"
25,CC(C)Cn1c(CCC(N)=O)nnc1SC(C)C(=O)Nc1ccc2c(c1)OCO2 (centres undefined),inactive

# Fetched by structure from the entries so far:
row,Structure (SMILES),Potency
21,Cc1cc(/C=C2\C(=N)N3N=C(C(C)C)SC3=NC2=O)c(C)n1-c1ccccc1,inactive
9,CC(C)OC(=O)Nc1ccc2c(c1)N(C(=O)CCN1CCN(CCO)CC1)c1ccccc1CC2,"inconclusive: 29.1 µM [activator, single point]"

# (listing goes on)

row,Structure (SMILES),Potency
1,COc1ccc(C(=O)NC(=S)N2CC(C)OC(C)C2)cc1 (centres undefined),inactive
2,COC(=O)C(C(=O)OC)C(c1ccccc1)C(C(=O)c1ccccc1)[N+](=O)[O-] (centres undefined),inactive
3,Cc1onc(-c2ccccc2Cl)c1C(=O)Nc1ccccc1C(=O)NC(C)C,"inconclusive: 13 µM [inhibitor, single point]"
4,COc1ccccc1NS(=O)(=O)c1ccc(C)c(NC(=O)c2ccc(S(=O)(=O)N3CCCCCC3)cc2)c1,"inconclusive: 2.06 µM [inhibitor, full curve, poor fit]"
5,COc1cc(OC)c(-c2nn3c(C4CCCCC4)nnc3s2)cc1OC,active: 20.6 µM
6,CC(=O)c1ccccc1OCCCCN1CCCCC1,inactive
7,CCNC(=S)NNC(=O)c1csc2c1CCCC2,inactive
8,S=C(Nc1ccccc1)Nc1cccc(Br)c1,inactive
9,COC(=O)c1c(C)nn(-c2ccccc2)c1-n1cccc1,"inconclusive: 29.1 µM [inhibitor, single point]"
10,CC(=O)N=c1sc2nc3ccccc3nc2n1N(C(C)=O)C(C)=O,inactive
11,O=C(O)c1ccc(-c2noc(-c3cccc(Cl)c3)n2)cc1,"inconclusive: 13 µM [activator, partial curve]"
12,Cc1ccc(CN2CCN(c3ncccn3)CC2)o1,"inconclusive: 16.4 µM [activator, single point]"
13,O=C(Nc1ccccc1)N(O)c1ccc(Cl)cc1,"inconclusive: 20.6 µM [activator, partial curve]"
14,O=[N+]([O-])c1cccc(-c2ccc(CN3CCN(c4ccccc4)CC3)o2)c1,inactive
15,Cc1cc(/C=N/n2cnnc2)c(C)n1-c1ccc2c(c1)OCO2,inactive
16,COc1cc(CN(C)CC2CCCN(CCc3cccc(C(F)(F)F)c3)C2)ccc1O (centres undefined),inactive
17,C=C1CCN([C@H](C(=O)OCc2cccc(C)c2)C(C)C)S(=O)(=O)c2ccccc21,inactive
18,COc1ccc(NC(=O)/C(C#N)=C/c2ccc(Br)o2)cc1,"inconclusive: 18.4 µM [activator, partial curve]"
19,CC(C)=NNc1nc(-c2ccccc2)cs1,"inconclusive: 29.1 µM [activator, single point]"
20,O=C1CCC/C(=N\NC(=O)c2ccc(NS(=O)(=O)c3ccc(Br)cc3)cc2)C1,"inconclusive: 29.1 µM [activator, partial curve, poor fit]"
21,N#Cc1ccc(-c2cccnc2)nc1SCC(N)=O,inactive
22,Cc1cccc2cc(-c3nc4ccc(C(=O)O)cc4[nH]3)c(=O)oc12,"inconclusive: 0.461 µM [activator, full curve]"
23,CCCc1cc(C(=O)Cc2ccc(F)cc2)c(O)cc1O,inactive
24,CC1CCc2c(sc(NC(=O)COC(=O)C3CCCO3)c2C#N)C1 (centres undefined),"inconclusive: 23.1 µM [activator, partial curve]"

# Reference: PubChem BioAssay AID504467 (National Center for Advancing Translational Sciences (NCATS), 2011)
